Binding data for two molecules are collected here from publication doi:10.1101/2020.05.27.118315.

Assay [1] has as its target T1, Gal4-BD-Snx4 (S. cerevisiae) (UniProt P47057).
T1 sequence: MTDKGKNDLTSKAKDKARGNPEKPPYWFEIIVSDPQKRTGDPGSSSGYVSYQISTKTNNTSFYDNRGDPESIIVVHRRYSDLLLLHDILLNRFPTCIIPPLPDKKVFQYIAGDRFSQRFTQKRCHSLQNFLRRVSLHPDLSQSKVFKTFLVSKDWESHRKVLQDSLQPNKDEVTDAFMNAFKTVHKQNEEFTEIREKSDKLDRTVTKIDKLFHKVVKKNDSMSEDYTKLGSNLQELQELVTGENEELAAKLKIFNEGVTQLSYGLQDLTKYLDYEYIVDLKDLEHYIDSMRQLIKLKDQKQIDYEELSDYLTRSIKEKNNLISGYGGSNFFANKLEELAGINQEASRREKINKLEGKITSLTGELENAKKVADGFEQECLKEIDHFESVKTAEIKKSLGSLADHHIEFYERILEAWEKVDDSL
In words: two-hybrid.

Assay [2] concerns the target Gal4-BD-Snx4 BAR binding domain construct (S. cerevisiae). In words: two-hybrid.

No constants are given. Whether binding was seen depends on the method and setting. Binding calls can cover weak binding; strength is not graded here. Where a sequence is shown, tags or fusion partners need not be part of it.

In the case of “Gal4-AD-Med13 construct, structured C-terminal tail domain (S. cerevisiae) (domain or fragment)”, the binding entry in assay [1] is reported as “binds”.

B1: Gal4-AD-Med13^907-1163 (domain or fragment, UniProt P38931 907-1163)
chain: KFYNMKQPYVFVKKHHELIKVKHDSQPFIKFLNFRPPNGIKNFKSLLLSSSFKEDCLSFAPTLSQTYINQELGFCELLKLTNEDPPGLMYLKAFDKNKLLLLAAQIVSYCSNNKNSIKNVPPILIILPLDNATLTELVDKANIFQVIKNEVCAKMPNIELYLKVIPMDFIRNVLVTVDQYVNVAISIYNMLPPKSVKFTHIAHTLPEKVNFRTMQQQQMQQQQQQQQQQQNNSTGSSSIIYYDSYIHLAYSRSVDKE
For B1, the binding result in assay [2] was “binds”.
